The match of structure and compound is tentative.
Target: ITK (Homo sapiens, UniProt Q08881)
Assay: ITK degradation HiBiT assay
Settings: C-terminal HiBiT-tagged Molt4 cells, 4 hrs; for DC50: read-out: HiBiT DC50
Description: Itk Degradation Hibit Assay
Compounds provided herein were assayed in vitro with ITK HiBit cell lines. Compound dilution series (11-point, 5 fold dilutions in DMSO, columns 2-12 with replicate in rows A/B, C/D, E/F, G,H at 2000× the final required concentrations were prepared in 96 well plates (Falcon, cat. no. 353077). Column 1, rows A-H were control DMSO. The 2000× solutions ranged from 2 mM to 1.024 nM (final assay concentration range 1 μM to […]). The 2000× solutions were added to cells in […], for a final DMSO concentration of 0.5% and final assay compound concentration of 1×. For the cells, C-terminal HiBiT-tagged Molt4 cells (ATCC CRL-1552, monoclonal cell line clone 1C10) were plated at 1×10^6 cells/mL, 100 μL/well ([…]) in complete RPMI (10% FBS, 1% L-glutamine). The cells were incubated with compound 10 and compound 17 for 4 hrs at […]/6% CO2.
Following incubation, 100 μL of complete Nano-Glo HiBiT Lytic Detection Reagent (Nano-Glo HiBiT Lytic Buffer with 1:50 Nano-Glo HiBiT Lytic Substrate and 1:100 LgBiT Protein; Promega cat. no. N3040) was added. Cells were further incubated for 10 min at room temperature (RT). Luminescence units (LU) were read on an EnVision plate reader (Perkin Elmer, 0.1 sec per well). Percent ITK remaining per sample was calculated as follows: […]
Using Graphpad Prism, % ITK remaining values were plotted as a function of compound concentration. To determine DC50 and Dmax values, resulting curves were fit to the Prism curve-fitting equation “log(inhibitor) vs response—Variable slope (four parameters)” (reported best fit value IC50 used as DC50). ITK was measured with antibody-based MSD (Meso-Scale Discovery) assays shown below.

Amino acid sequences for entries named in this document (tags omitted).
UniProt Q08881, whole entry: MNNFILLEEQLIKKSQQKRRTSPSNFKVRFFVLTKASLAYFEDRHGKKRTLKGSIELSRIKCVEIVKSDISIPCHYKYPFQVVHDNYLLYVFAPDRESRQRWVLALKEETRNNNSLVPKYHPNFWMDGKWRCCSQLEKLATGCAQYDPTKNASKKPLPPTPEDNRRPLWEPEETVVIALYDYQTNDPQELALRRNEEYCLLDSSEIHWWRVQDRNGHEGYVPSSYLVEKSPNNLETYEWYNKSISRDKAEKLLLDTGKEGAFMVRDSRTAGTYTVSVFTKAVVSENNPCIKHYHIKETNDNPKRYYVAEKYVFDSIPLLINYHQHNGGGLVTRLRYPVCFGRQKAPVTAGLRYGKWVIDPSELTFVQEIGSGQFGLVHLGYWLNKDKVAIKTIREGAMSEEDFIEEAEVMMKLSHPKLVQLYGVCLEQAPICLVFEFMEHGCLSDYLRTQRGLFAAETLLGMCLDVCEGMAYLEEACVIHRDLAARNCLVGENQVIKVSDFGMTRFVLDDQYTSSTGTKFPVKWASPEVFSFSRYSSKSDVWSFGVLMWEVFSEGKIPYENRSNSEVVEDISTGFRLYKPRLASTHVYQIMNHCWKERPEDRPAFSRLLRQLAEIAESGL

Row | Compound | HiBiT DMax (%) | DC50
1 | C[C@@]12Cc3[nH]nc(C(=O)Nc4cnn(C5CCN(CC6CCN(c7ccc(C(=O)NC8CCC(=O)NC8=O)cc7)CC6)CC5)c4)c3C[C@@H]1C2(F)F (stereo partly shown) | 81% | 4.9 nM
2 | CC1(C)CCc2c(-c3cc4ccc(C(=O)N5CCN(CC6CCN(c7ccc(C(=O)N[C@H]8CCC(=O)NC8=O)nc7)CC6)CC5)cc4[nH]3)n[nH]c2C1 | 59% | 8.8 nM

Source: patent publication US20240279202A1 (NURIX THERAPEUTICS, INC., priority 2021, published 2024)
